Among all 320,000 compounds or so, about 22,000 (6.9%) were called active. The shares of active, inactive and inconclusive entries below differ from those in the screen. Calls come from the whole dose curve; as a rule, active = well fitted inhibition curve with a large enough effect; inconclusive = small, poorly fitted or top-dose-only effect, or another doubt; inactive = no such curve, though single readings can be large or run the other way. Potencies beside an inconclusive call are fits to weak or partial responses and may not hold up.
test: Primary qHTS for delayed death inhibitors of the malarial parasite plastid, 96 hour incubation; conditions: P. falciparum luciferase reporter growth; series mostly up to 28.7 µM
Outline: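 Readout is luminescence from an integrated firefly luciferase in P. falciparum. Red cells, 2% hematocrit and 0.05% parasitemia final, were cultured with compound through two parasite generations (96 hours) at 37 C, 5% CO2.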
Potency is the fitted concentration of half-maximal effect.

Row | SMILES | Potency
1 | O=C(N/C(=C/c1cccs1)C(=O)N1CCCCCC1)c1ccccc1 | inactive
2 | CCOC(=O)Cn1nc(C)n(-c2ccc(Br)cc2)c1=O | inactive
3 | COc1ccc(N2C(=O)CCC(C(=O)NCc3ccccn3)C2c2ccc(F)cc2)cc1 (stereo not given) | inconclusive: 11.7 µM [inhibitor, single point]
4 | Fc1cc2[nH]c(=S)[nH]c2c(Br)c1N1CCSCC1 | inconclusive: 11.7 µM [inhibitor, partial curve]
5 | CC1(C)CC2CC(C)(CN2C(=O)C23CCC(C)(C(=O)C2)C3(C)C)C1 (stereo not given) | inconclusive: 9.28 µM [inhibitor, partial curve]
6 | Cc1ccc2[nH]c(C(=O)O)c(-c3ccccc3)c2c1 | active: 7.38 µM
7 | O=C(O)c1ccc2c(c1)NC(=O)C(N1CCCC1)S2 (stereo not given) | inconclusive: 10.4 µM [inhibitor, single point]
8 | Cc1cc(C)c(S(=O)(=O)NC2CC3CCC2C3)c(C)c1 (stereo not given) | inconclusive: 14.7 µM [inhibitor, single point]
9 | O=c1oc(-c2ccccc2)nc2sc3c(c12)CCC3 | inactive
10 | c1ccc(-c2cnnn2-c2ccccc2)cc1 | active: 0.828 µM
11 | S=C(NCc1ccc(Cl)cc1Cl)NC1CCCCC1 | inconclusive: 11.7 µM [inhibitor, single point]
12 | COc1ccc(/C=N/N2CCN(Cc3ccccc3)CC2)cc1 | inactive
13 | COCCN(C(=S)Nc1cccc(C)c1C)C(C)c1ccco1 (stereo not given) | inactive
14 | CN1CCN(c2ccc([N+](=O)[O-])cc2NC(=O)c2cccs2)CC1 | inconclusive: 4.65 µM [inhibitor, partial curve, poor fit]
15 | CCOC(=O)c1ccc(N2Cc3cc(C)c(C)cc3C2)cc1O | inactive
16 | CCN1CCN(c2nc3c(C)cccn3c(=O)c2/C=C(\C#N)C(=O)NCCCOC)CC1 | inactive
17 | O=[N+]([O-])c1ccccc1S(=O)(=O)Nc1nc2ccccc2s1 | inconclusive: 18.5 µM [inhibitor, single point]
18 | CC(=O)Nc1ccc(NC(=O)CN(c2ccc(C(C)C)cc2)S(=O)(=O)c2ccccc2)cc1 | inconclusive: 10.4 µM [inhibitor, single point]
19 | CCSc1oc(-c2cccs2)nc1S(=O)(=O)c1ccccc1 | inactive
20 | COc1ccc(F)cc1C(=O)C1CCCN(Cc2ccc(Sc3nncn3C)o2)C1 (stereo not given) | inconclusive: 16.5 µM [inhibitor, single point]
21 | Nc1ccc(C(=O)N/N=C/c2sc(N3CCOCC3)nc2-c2ccccc2)cc1 | inconclusive: 18.5 µM [inhibitor, single point]
22 | O=c1c2ccccc2[nH]c(=S)n1Cc1cccnc1 | inconclusive: 18.5 µM [inhibitor, single point]
23 | Cc1ccc(NC(=O)N2CCCN(C(=O)OC(C)(C)C)CC2)cc1Cl | inconclusive: 2.94 µM [inhibitor, single point]
24 | CC(C)=CCc1c(O)ccc(C(=O)Cc2ccccc2)c1O | inconclusive: 10.4 µM [inhibitor, single point]

Random excerpt: 2 records from the list
Row | SMILES | Potency
1 | O=C(N/C(=C/c1cccs1)C(=O)N1CCCCCC1)c1ccccc1 | inactive
12 | COc1ccc(/C=N/N2CCN(Cc3ccccc3)CC2)cc1 | inactive

More results:

Row | SMILES | Potency
25 | C#CCOc1c(/C=C\c2nc(O)c([N+](=O)[O-])c(=O)[nH]2)cc(Br)cc1OC | inconclusive: 18.5 µM [inhibitor, single point]
26 | COc1cc(NC(=O)COC(=O)CCOc2ccc(C)cc2)cc(OC)c1 | inconclusive: 13.1 µM [inhibitor, partial curve, poor fit]
27 | COCCn1c(-c2ccccc2)cnc1N | inconclusive: 0.0104 µM [inhibitor, full curve, poor fit]
28 | Cc1nc(-c2ccccc2)sc1-c1n[nH]c(=S)n1C | inconclusive: 18.5 µM [inhibitor, single point]
29 | COc1cc2c(cc1OC)CN(C(=O)c1cc(Cl)nc(Cl)c1)CC2 | inconclusive: 9.28 µM [inhibitor, partial curve]
30 | CCCCn1c(-c2csc3c2CCCC3)n[nH]c1=S | inactive
31 | CCCOc1ccc(C2C(C(=O)c3ccco3)=C(O)C(=O)N2CCCn2ccnc2)cc1 (stereo not given) | inconclusive: 0.0657 µM [inhibitor, full curve, poor fit]
32 | CCCOc1ccccc1NC(=O)c1ccc([N+](=O)[O-])cc1 | inactive
33 | C=CCNC(=S)NNC(=O)c1ccc(OCCC)cc1 | inconclusive: 11.7 µM [inhibitor, single point]
34 | CCCc1cc(=O)oc2cc(C)cc(OC(=O)c3ccco3)c12 | inactive
35 | NC(N)=NS(=O)(=O)c1ccc(NC(=S)NC(=O)c2sc3ccccc3c2Cl)cc1 | inactive
36 | CC(=NCCCN(C)C)C1=C(O)c2ccccc2C1=O | inactive
37 | C=CCn1c(O)c(N=NC(=O)c2cccnc2)c2cc(Br)ccc21 | inconclusive: 4.15 µM [inhibitor, full curve, poor fit]
38 | CN(Cc1ccco1)c1ncnc2ccc(-c3ccc4c(ccn4C)c3)cc12 | active: 9.28 µM
39 | O=C1CC(c2ccc(Cl)cc2)SC(N(c2ccccc2)c2ccccc2)=N1 (stereo not given) | inconclusive: 4.65 µM [inhibitor, partial curve, poor fit]
40 | CC1NC(=O)NC1CCCCCC(=O)Nc1ccc(F)cc1 (stereo not given) | inconclusive: 11.7 µM [inhibitor, partial curve]
41 | Cc1cc(C)c(S(=O)(=O)N2CCOCC2)c(C)c1N(C)S(=O)(=O)c1ccccc1 | inconclusive: 0.0033 µM [inhibitor, full curve, poor fit]
42 | CCOc1ccc2nc(N3CCCCCC3)sc2c1 | inconclusive: 1.47 µM [inhibitor, partial curve]
43 | COc1cccc(NC(=O)CN(C)C(=O)c2ccc3c(c2)CC(c2ccccc2)OC3=O)c1 (stereo not given) | inconclusive: 18.5 µM [inhibitor, single point]
44 | COc1ccc(C(=O)NCCc2nnc(SCC(=O)Nc3ccccc3F)n2C)cc1 | inconclusive: 10.4 µM [inhibitor, single point]
45 | CN(c1ccccc1)S(=O)(=O)c1cccc(NC(=O)CN2C(=O)NC3(CCCC3)C2=O)c1 | inconclusive: 16.5 µM [inhibitor, partial curve, poor fit]
46 | COc1cc2cc(CCCOC(=O)c3cccc(Br)c3)oc(=O)c2cc1OC | inconclusive: 13.1 µM [inhibitor, single point]
47 | N#Cc1sc2nc(-c3cccs3)cc(-c3ccc(F)cc3)c2c1N | inconclusive: 18.5 µM [inhibitor, single point]
48 | CCC1CCCCN1C(=O)CSc1nnc2nc(C)cc(C)n12 (stereo not given) | inconclusive: 11.7 µM [inhibitor, partial curve, poor fit]

Rewritten as comma-separated lines: part of the list above.
Row,SMILES,Potency
9,O=c1oc(-c2ccccc2)nc2sc3c(c12)CCC3,inactive
10,c1ccc(-c2cnnn2-c2ccccc2)cc1,active: 0.828 µM
11,S=C(NCc1ccc(Cl)cc1Cl)NC1CCCCC1,"inconclusive: 11.7 µM [inhibitor, single point]"
12,COc1ccc(/C=N/N2CCN(Cc3ccccc3)CC2)cc1,inactive
13,COCCN(C(=S)Nc1cccc(C)c1C)C(C)c1ccco1 (stereo not given),inactive

(further entries)

Row | SMILES | Potency
49 | O=[N+]([O-])c1cccc(-c2nc(-c3cccs3)c(-c3cccs3)[nH]2)c1 | inconclusive: 3.29 µM [inhibitor, full curve, poor fit]
50 | COc1cccc(OC)c1C(=O)Nn1c(-c2cccc(C)c2)nc2ccccc2c1=O | inconclusive: 2.62 µM [inhibitor, full curve, poor fit]
51 | O=C(c1coc2ccc(O)cc12)C1CC1 | active: 8.28 µM
52 | C=CCc1ccccc1OCC(O)CN1CCN(c2ccc(OC)cc2)CC1 (stereo not given) | active: 6.57 µM
53 | O=S(=O)(c1ccc(F)c(Cl)c1)N1CCN(C/C=C/c2ccccc2)CC1 | inconclusive: 5.22 µM [inhibitor, partial curve, poor fit]
54 | Cc1ccc(NC(=O)N2CCCc3ccccc32)cc1C | inactive
55 | Cn1cccc1C(=O)OCC(=O)NC(=O)NC1CCCCC1 | inactive
56 | O=C1CC(N2CCC(c3nc4ccccc4o3)CC2)C(=O)N1c1cc(Cl)cc(Cl)c1 (stereo not given) | inconclusive: 18.5 µM [inhibitor, single point]
57 | CCOc1ccc(C(=O)CCC(=O)N2CCN(S(=O)(=O)c3cccc(F)c3)CC2)cc1 | inconclusive: 11.7 µM [inhibitor, single point]
58 | Cc1ccc(C)n1-c1nccc(-c2cccs2)n1 | inconclusive: 0.0029 µM [inhibitor, full curve, poor fit]
59 | CC1(NC(=S)NCCCCCCNC(=S)NC2(C)CCS(=O)(=O)C2)CCS(=O)(=O)C1 (stereo not given) | inconclusive: 4.65 µM [inhibitor, partial curve]
60 | O=C1CCCN1c1ccc(S(=O)(=O)NCCOc2ccccc2)cc1 | inconclusive: 9.28 µM [inhibitor, single point]
61 | CCC(C)(C)NC(=O)Cn1c(=O)oc2cc(S(=O)(=O)N3CC(C)CC(C)C3)ccc21 (stereo not given) | inconclusive: 18.5 µM [inhibitor, single point]
62 | S=c1[nH]nc(-c2ccccc2Cl)n1/N=C/C=C/c1ccco1 | inactive
63 | N#C/C(=C\c1ccc(O)c(O)c1)C(=O)N1CCCC1 | inconclusive: 11.7 µM [inhibitor, partial curve, poor fit]
64 | Cc1c(CN2CCC(C(=O)Nc3ccc(Oc4ccccc4)nc3)CC2)cnn1C | inconclusive: 11.7 µM [inhibitor, single point]
65 | O=C(CC(=O)Nc1ccc(Cl)cc1)N/N=C\c1cccc(F)c1 | active: 10.4 µM
66 | O=C(NCc1cccnc1)NC1(c2ccccc2)CC1 | inconclusive: 8.28 µM [inhibitor, partial curve, poor fit]
67 | CCOC(=O)c1ccc(N=C2C(=S)N(c3ccc(C(=O)OCC)cc3)C(=N)N2/N=C/c2ccccc2)cc1 | active: 10.4 µM
68 | COC(=O)[C@@]12CCCCN1[C@H](c1ccc(-c3ccc4c(c3)OCO4)c(OC)c1)[C@@H]1C(=O)N(C)C(=O)[C@@H]12 | active: 13.1 µM
69 | O=C(O)c1nn(CCOc2c(Cl)cccc2Cl)c(=O)c2ccccc12 | inactive
70 | Cc1ccc2c(CN3CCOCC3)cc(=O)oc2c1C | inconclusive: 0.0026 µM [inhibitor, full curve, poor fit]

Source: PubChem BioAssay AID504834 (National Center for Advancing Translational Sciences (NCATS), 2011)
